# Results reported in PubChem BioAssay AID493014 (National Center for Advancing Translational Sciences (NCATS), 2011).
# Some of the results follow. Further columns of the screen follow, without active or inactive calls. Compounds called inactive in the main read-out are mostly missing here. The note in brackets gives the kind of curve behind each potency; many fits are weak.
# Experiment: qHTS Assay to Find Inhibitors of Chronic Active B-Cell Receptor Signaling
# Conditions: ABC-DLBCL IkBa-CBG/CBR reporter, luminescence ratio (green luciferase fused to IkBa over red control in TMD8 lymphoma cells), 4 h
# In short: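 TMD8 ABC-DLBCL cells carrying doxycycline-inducible green luciferase fused to IkappaBalpha plus unfused red luciferase were exposed to compounds (up to 46 uM) for 4 hrs at 37C. Activity came from the overlap-corrected green/red luminescence ratio.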
# [1] = measured here: CBR red luminescence, cell number
# [2] = measured here: IkBa-CBG green luminescence
Structure (SMILES),AC50 [1],AC50 [2]
CNC(=O)c1ccc(NC(=O)CN2c3cccc4cccc(c34)S2(=O)=O)cc1,"14.6 µM [rising, partial curve]",
Cc1ccc(CN2CCC(N3CCC(C(=O)NCC4CCCO4)CC3)CC2)o1 (stereo not drawn),"35.5 µM [falling, single point]",
O=C(N[C@H]1C/C=C\C[C@H](CC(=O)N(CCO)Cc2ccccc2)C(=O)NC[C@H](c2ccccc2)OC1=O)OCC1c2ccccc2-c2ccccc21,"2.59 µM [falling, single point]",
O=C(CSc1n[nH]c(-c2ccc(S(=O)(=O)NC3CCCCC3)cc2)n1)N1CCCC1,"35.5 µM [falling, partial curve, poor fit]",
CCOC(=O)CNC(=O)c1nn(-c2cccc(OC)c2)c(=O)c2ccccc12,"5.8 µM [rising, partial curve, poor fit]",
C/C(=N\NC(=O)c1cc(C)nc2ccccc12)c1ccco1,"35.5 µM [rising, single point]","35.5 µM [falling, single point]"
COCCNC(=O)c1onc(CCl)c1C(=O)OC,"22.4 µM [falling, single point]",
Cc1ccccc1C(=O)NCC(=O)OC(C)C(=O)NC(C)CCc1ccccc1 (stereo not drawn),"9.2 µM [rising, partial curve, poor fit]",
CCOc1ccccc1NC(=O)C1Cc2ccccc2CN1S(C)(=O)=O (stereo not drawn),"35.5 µM [rising, single point]",
COC(=O)C1CCN(C(=O)C23CCC(C)(C(=O)O2)C3(C)C)CC1 (stereo not drawn),"0.731 µM [falling, full curve, poor fit]",
COc1cc(CC(=O)OCC(=O)Nc2ccc(N(C)C)cc2)cc(OC)c1OC,"10.3 µM [rising, partial curve, poor fit]",
COc1ccc(-c2c(C)nc3c(-c4ccccn4)cnn3c2N)cc1,"2 µM [rising, full curve, poor fit]",
CCOc1cc(CNc2ccc3c(c2)CCC3)ccc1O,"25.9 µM [rising, partial curve, poor fit]",
CN(C)N1C(N)=C(C#N)C(c2ccc(F)cc2)C2=C1CCCC2=O (stereo not drawn),"5.62 µM [falling, single point]",
CC1=Nc2ccccc2N=C(NC(=O)CSC(=S)N2CCCCC2)C1c1ccccc1 (stereo not drawn),"11.2 µM [falling, single point]",
Cc1ccc(C(=O)Nc2sc(C)c(-c3ccccc3)c2C(N)=O)cc1[N+](=O)[O-],"12.6 µM [rising, partial curve, poor fit]",
COc1ccc2c(Cl)c(C(=O)N/N=C/c3c(C)[nH]c4ccccc34)sc2c1,"18.4 µM [falling, single point]",
O=C(Cc1ccc(F)cc1)Nc1nc(-c2ccc(F)c(F)c2)cs1,"31.6 µM [falling, single point]",
CCSc1nc2n(n1)C(c1ccc(Cl)cc1Cl)C(C(=O)Nc1ccccc1C)=C(C)N2 (stereo not drawn),"15.8 µM [falling, partial curve, poor fit]",
CC[C@]12c3[nH]c4cc(CCC(=O)N(C)C)ccc4c3CCN1C(=O)[C@@H](CC(=O)NCc1cccc(C(F)(F)F)c1)C[C@@H]2C(=O)N1CCN(C(=O)c2ccco2)CC1,"18.4 µM [rising, single point]","18.4 µM [falling, single point]"

Structure (SMILES),AC50 [1],AC50 [2]
COc1ccc(NC(=O)C/C(C)=N/NC(=O)c2ccccn2)c(OC)c1,"7.94 µM [falling, partial curve, poor fit]",
COc1cc(NC(C(=O)Nc2cccc(C(C)=O)c2)c2ccccc2)cc(OC)c1OC (stereo not drawn),"20.6 µM [rising, single point]",
Cc1ccc(-n2ccn(CC(=O)NCCc3ccccc3)c(=O)c2=O)cc1C,"2.51 µM [falling, full curve]",
CCc1ccc2[nH]c(=O)c(C(c3nnnn3CCOC)N3CCN(c4ccc(F)cc4)CC3)cc2c1 (stereo not drawn),"29.1 µM [falling, single point]",
CCOC(=O)c1c(CNCc2ccccc2F)c2sc(C)cc2n1C,"5.8 µM [rising, partial curve, poor fit]",
Cc1ccccc1Nc1nc(-c2cccnc2)cs1,"35.5 µM [falling, single point]",
OCCCN1c2ccccc2Nc2nnc(-c3ccccc3)cc21,"7.94 µM [falling, partial curve]",
Cc1ccc(C(=O)OCCN(C)Cc2ccccc2)cc1,"12.6 µM [rising, partial curve, poor fit]",
Cc1ccc(NC(=S)NNC(=O)c2cn(C)nc2C)cc1,"8.91 µM [falling, partial curve]",
CCCCc1nnc(SCCSc2nnc(CCCC)n2N)n1N,"5.8 µM [rising, full curve, poor fit]",
CC(=O)c1cccc(Oc2cc(NN3CCCCC3)c([N+](=O)[O-])cc2[N+](=O)[O-])c1,"31.6 µM [rising, partial curve, poor fit]",
O=C(c1noc2c1CCc1ccccc1-2)N1CCOCC1,"2.59 µM [rising, full curve]",
O=C(NNC(=O)c1ccccc1C(=O)O)c1ccc(O)cc1,"0.2 µM [falling, full curve, poor fit]",
O=C(Nc1nc2cc3c(cc2s1)OCCO3)C1=COCCO1,"14.1 µM [falling, partial curve]",
CC(C(=O)Nc1cc(C(F)(F)F)ccc1N1CCOCC1)N1C(=O)C2CC=CCC2C1=O (stereo not drawn),"12.6 µM [rising, single point]",
Clc1ccc2nc(NC3=NCN(CCN4CCOCC4)CN3)nc(-c3ccccc3)c2c1,"4.47 µM [falling, full curve]",
Cc1ccc(-c2nc(SCC(=O)Nc3cc(S(=O)(=O)N4CCCCC4)ccc3Cl)n[nH]2)cc1,"29.1 µM [falling, single point]",
CNC(=S)N/N=C/c1ccco1,,"31.6 µM [falling, partial curve, poor fit]"
Cc1c(C(=O)Nc2ccc(OC(F)(F)F)cc2)sc2nc3n(c(=O)c12)CCC3,"14.1 µM [rising, single point]",
COC(=O)c1sc2nc(C)cc(C)c2c1N,"10 µM [falling, partial curve, poor fit]","2.51 µM [rising, partial curve, poor fit]"

Structure (SMILES),AC50 [1],AC50 [2]
COC(=O)C1(C(C[N+](=O)[O-])c2ccco2)C(=O)NCC1c1ccccc1 (stereo not drawn),"35.5 µM [rising, single point]",
C=CCSc1ncccc1C(=O)NCCc1ccccc1,"35.5 µM [rising, single point]",
CCCCCN=Cc1c(C)[nH]n(-c2nc3ccccc3s2)c1=O,"7.94 µM [falling, partial curve]",
COC(=O)c1ccc(N=Nc2c(C)[nH]n(-c3ccccc3)c2=O)cc1,"1.26 µM [falling, full curve]",
Cc1cc(=O)oc2cc(OCC(=O)N/N=C/c3ccccc3O)ccc12,"3.55 µM [rising, partial curve, poor fit]",
COc1ccc(NC(=O)CN(c2cc(C)cc(C)c2)S(=O)(=O)c2c(C)noc2C)cc1,"0.206 µM [falling, partial curve, poor fit]",
OCCCNCc1ccc(N(c2ccccc2)c2ccccc2)cc1,"12.6 µM [falling, single point]",
CSc1nc2ccc(NC(=O)c3cccs3)cc2s1,"29.1 µM [falling, single point]",
CC(=O)NC(Cc1ccccc1)C(=O)NC1CCN(C(=O)c2cnccn2)CC1 (stereo not drawn),"29.1 µM [rising, single point]",
O=C(NCCS(=O)(=O)N1CCN(c2ccccc2)CC1)c1ccccc1F,"7.31 µM [rising, partial curve, poor fit]",
C=CCC[C@@H](Cc1ccc(F)cc1)C(=O)OC[C@@H]1CCCN1C(=O)[C@@H](CC=C)CC(=O)N[C@@H](CO)Cc1ccccc1,"29.1 µM [falling, single point]",
CCc1cccc(NC(=O)Cc2ccc([N+](=O)[O-])cc2)c1,"18.4 µM [rising, partial curve, poor fit]",
Cc1nn(C)c(C(=O)Nc2ccn(Cc3ccccc3F)n2)c1[N+](=O)[O-],"3.16 µM [rising, single point]",
CCOc1ccc(NC(=O)CSC2=Nc3ccccc3C3=NC(CCC(=O)NCc4ccco4)C(=O)N23)cc1 (stereo not drawn),"35.5 µM [rising, single point]",
CC(/C=C/C1[C@H](C)C[C@H](O[C@@H]2O[C@H](CO)[C@@H](O)[C@H](O)[C@H]2O)CC1(C)C)O[C@H]1O[C@H](CO)[C@@H](O)[C@H](O)[C@H]1O (stereo partly drawn),"8.2 µM [rising, partial curve]",
OC[C@@H](O)[C@H](O)C(/C=N/Nc1ccccc1)=N\Nc1ccccc1,"0.398 µM [rising, partial curve, poor fit]",
CCCCOC(=O)c1ccc(NC(=O)CSc2nnnn2C)cc1,"0.891 µM [rising, full curve, poor fit]",
Cc1ccnc(N/C=C/C(=O)c2ccc(Br)cc2)c1,"7.94 µM [falling, partial curve, poor fit]",
COc1cccc(CNC(=O)c2ccc(OCC(=O)N3CCOCC3)c(OC)c2)c1,"20.6 µM [rising, partial curve, poor fit]",
CC(=O)/C(=N\Nc1ccc(Cl)cc1)Sc1nnc(-c2ccccc2)n1-c1ccccc1,"0.731 µM [rising, full curve, poor fit]",

# Reprinted from the listing, 3 compounds:
Structure (SMILES),AC50 [1],AC50 [2]
CCOc1ccc(NC(=O)CSC2=Nc3ccccc3C3=NC(CCC(=O)NCc4ccco4)C(=O)N23)cc1 (stereo not drawn),"35.5 µM [rising, single point]",
CC(/C=C/C1[C@H](C)C[C@H](O[C@@H]2O[C@H](CO)[C@@H](O)[C@H](O)[C@H]2O)CC1(C)C)O[C@H]1O[C@H](CO)[C@@H](O)[C@H](O)[C@H]1O (stereo partly drawn),"8.2 µM [rising, partial curve]",
OC[C@@H](O)[C@H](O)C(/C=N/Nc1ccccc1)=N\Nc1ccccc1,"0.398 µM [rising, partial curve, poor fit]",
